Article PMC8977021, “bZIP transcription factors PcYap1 and PcRsmA link oxidative stress response to secondary metabolism and development in Penicillium chrysogenum”

Key:
PcYap1 = target: T1, PcYap1 (UniProt B6HDY4); experiment: EMSA; settings: LightShift binding buffer 1X, about 10% glycerol, 5 mM MgCl2, 20 fmol biotin probe, 10 ug protein, 20 uL, room temperature 20 min; 5% native PAGE in 0.5X TBE; recombinant protein; protein details: C-terminal c-myc-6xHis; label: 3' biotin; probe letters rebuilt from the primers and the genome
T1 sequence (looked up, limits assumed): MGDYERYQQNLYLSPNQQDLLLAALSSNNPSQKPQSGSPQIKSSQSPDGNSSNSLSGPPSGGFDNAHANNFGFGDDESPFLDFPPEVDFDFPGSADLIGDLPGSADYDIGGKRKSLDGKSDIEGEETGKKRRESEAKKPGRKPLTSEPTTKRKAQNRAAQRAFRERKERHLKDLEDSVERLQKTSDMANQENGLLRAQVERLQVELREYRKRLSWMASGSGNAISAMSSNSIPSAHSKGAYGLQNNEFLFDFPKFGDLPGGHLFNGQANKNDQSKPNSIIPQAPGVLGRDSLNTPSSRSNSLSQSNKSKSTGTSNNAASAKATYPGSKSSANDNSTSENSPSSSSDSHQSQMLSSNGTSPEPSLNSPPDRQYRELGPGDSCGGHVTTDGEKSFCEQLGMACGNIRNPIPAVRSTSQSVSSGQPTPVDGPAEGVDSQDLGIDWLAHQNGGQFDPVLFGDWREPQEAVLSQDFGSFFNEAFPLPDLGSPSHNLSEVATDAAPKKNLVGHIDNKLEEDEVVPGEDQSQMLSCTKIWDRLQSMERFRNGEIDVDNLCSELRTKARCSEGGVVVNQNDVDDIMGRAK

PcRsmA [1] = target: T2, PcRsmA (UniProt B6GZ21); experiment: EMSA; settings: LightShift binding buffer 1X, about 10% glycerol, 5 mM MgCl2, 20 fmol biotin probe, 10 ug protein, 20 uL, room temperature 20 min; 5% native PAGE in 0.5X TBE; recombinant protein; residues 1-299; protein details: C-terminal c-myc-6xHis; label: 3' biotin; probe letters rebuilt from the primers and the genome
T2 sequence (looked up): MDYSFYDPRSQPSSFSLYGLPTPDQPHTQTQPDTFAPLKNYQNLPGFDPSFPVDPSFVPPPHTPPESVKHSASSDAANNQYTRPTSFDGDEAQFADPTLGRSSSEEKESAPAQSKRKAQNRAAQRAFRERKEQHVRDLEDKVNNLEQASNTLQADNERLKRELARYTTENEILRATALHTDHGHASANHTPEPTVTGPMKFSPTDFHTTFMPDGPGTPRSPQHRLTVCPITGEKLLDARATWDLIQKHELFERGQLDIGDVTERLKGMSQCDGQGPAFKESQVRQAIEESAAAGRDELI

PcRsmA [2] = target: T2, PcRsmA; experiment: competition with a labelled probe; settings: unlabelled 50-200x vs labelled RsmA-2C; LightShift binding buffer 1X, about 10% glycerol, 5 mM MgCl2, 20 fmol biotin probe, 10 ug protein, 20 uL, room temperature 20 min; 5% native PAGE in 0.5X TBE; recombinant protein; residues 1-299; protein details: C-terminal c-myc-6xHis; label: 3' biotin

Sequence: ATGGAGATTGGCCAGGTCAGCCATATATACCCTGCAATGGCAGACCAATGCAGCAGGCCCAGTATAAGGAATTCCCCTCGAGCTTGTCTGTGATTGCGTTTTTTCTAACACTTGTTGTTGCATCCGATCCGTCCCTACCAATTATTGGTCATTGACAGAGATGACTCAACTGAAGCCACCGAACGGAACCACGCCGAT (double strand) [probe 1]
- binding result (PcYap1): no binding
- binding result (PcRsmA [1]): no binding

Sequence: CTCCAGGTTGTCTCAGCATAAACA (double strand) [RsmA-2C]
- binding result (PcRsmA [2]): binds

Sequence: ATGTCTCCAGGTTGTCTCAGCATAAACACCCCGCCCCCGCTCAGGCACACAGGAAGAGAGCTCAGGTCGTTTCCATTGCGTCCATACTCTTCACTCATTGTCATCTGCAGGAGAACTTCCCCTGTCCCTTTGCCAAGCCCTCTCTTCGTCGTTGTCCACGCCTTCAAGTTTTCACCATTATTTTTCTAGACACCATGGCTTCC (double strand) [probe 6]
- binding result (PcYap1): no binding
- binding result (PcRsmA [1]): no binding

Sequence: AACGACGGCGATGTTCCAAGGTAAACCGGCACGTAGAAAATGTCCGGACCACCTTGGCTCTCGTTGCAGCGTGTTGAATCTTCAGCCACCATAAGTCGATAGCATCCGGTTAGAGTGCAACGTGGGTCTGTCTCATTCTTCTCGGTTCTTGGCACCAGAATCGGGCGTAGTTTGCCCACTGCCAAG (double strand) [probe 3]
- binding result (PcYap1): no binding
- binding result (PcRsmA [1]): no binding

Sequence: TGTTTATGCTGAGACAACCTGGAGACATTATACGCTTGCAGCCCAGATGCTTACTGGATGGGGCCGCTGGAGCCAGTGTAAAATTAGTAACCGTATCTC (double strand) [upPta1]
- binding result (PcYap1): binds
- binding result (PcRsmA [1]): binds

Sequence: TTGCCCACTGCCAAGTCGCGGGGCCGCTTGGCTGTCCTTGTGGTGGGATTTCCCGATGCAACATGCAGATACATGTAGTCGACAGTTGACAGAGCCAATGGCATCGGATCTGCCGTAGACCGTGCTAGACGAAAGTCTCCATCTTGTCTGCGGGCAGTGCTTCAGTCGCCCAGATTCTCGATGGAGATTGGCCAG (double strand) [probe 2]
- binding result (PcYap1): no binding
- binding result (PcRsmA [1]): no binding

For some assays here: No signal at the amounts used counts as a negative. Construct, isoform or probe ends are uncertain for at least one entry. For some assays here: At least one verdict rests on a figure or table, not on a statement of the authors. For some assays here: Where a protein sequence is shown, tags need not be part of it.
